{
  "source": "patent US20230126711A1",
  "about": "“ENTERIC NITRERGIC NEURONS AND METHODS OF USING THE SAME” (The Regents of the University of California, priority 2020, published 2023)",
  "tested_on": "NOS1",
  "experiment": "Percentage of NO neurons in treated cultures by flow cytometry for NOS1",
  "assay_type": "cell-based, human",
  "details": "flow cytometry for NOS1, compared to no treatment",
  "procedure": "NO neurons quantified using flow cytometry for NOS1.\nOption 1 (for 3-D Culture): • 30. On day 15, ENC spheroids are gathered in the center of the wells using a swirling motion and neural crest medium is removed using a P1000 micropipette in slow circular motion, avoiding the free-floating spheroids. • 31. Spheroids are fed with the same volume of ENC medium containing PP121 (1-5 μM), GDNF (10 ng/ml), ascorbic acid (100 μM), N2 supplement (10 μl/ml), B27 supplement (20 μl/ml), glutagro (10 μl/ml), and MEM NEAAs (10 μl/ml) in neurobasal medium. • 32. Cells are fed with ENC every other day until day 30-40, after which, feeding frequency can be reduced to once or twice a week but with a higher volume of medium.\nOption 2 (for 2-D Culture): • 30. On day 15, ENC spheroids are gathered in the center of the wells using a swirling motion and neural crest medium is removed using a P1000 micropipette in slow circular motion, avoiding the free-floating spheroids. • 31. After washing the spheroids with PBS, accutase is added and plates are incubated for 30 minutes at 37° C. to dissociate the spheroids. • 32. Then, remaining spheroids are broken by pipetting ENC medium. • 33. ENC contains PP121 (1-5 μM), GDNF (10 ng/ml), ascorbic acid (100 μM), N2 supplement (10 μl/ml), B27 supplement (20 μl/ml), glutagro (10 μl/ml), and MEM NEAAs (10 μl/ml) in neurobasal medium. • 34. […]",
  "note": "At least one structure is not confirmed: it was looked up by name or label, or the drawing left a doubt.",
  "data": [
    {"smiles": "CCN(CC)CCNC(=O)c1c(C)[nH]c(/C=C2\\C(=O)Nc3ccc(F)cc32)c1C", "note": "[Sunitinib]", "values": [
      {"measurement": "percentage of NO neurons (NOS1 induction)", "value": "increases NO neurons similar to PP121"}
    ]}
  ]
}
